# Experimental data published in patent US9950026B2, “Methods for reducing oxidative damage” (Cornell Research Foundation, Inc., priority 2004, dated 2018).
# Test system: C57BL/6 mice subjected to MCAO
# Assay: Infarct size, swelling and cerebral blood flow after MCAO
# Type: in vivo
# Conditions: vs vehicle
# Method: FIG. 32A-32F. Effect of SS-31 peptide on ischemia-induced infarct size and swelling in C57BL/6 mice. Shown are representative serial sections (1.2 mm apart) stained with Cresyl Violet from mice subjected to 30 min (A) and 20 min (B) MCAO and treated with vehicle (Veh) or SS-31 (2 mg/kg body weight) immediately after reperfusion, 6 h, 24 h, and 48 h.
# To address whether SS-31-induced attenuation in GSH depletion is associated with neuroprotection, mice were subjected to 30 or 20 min MCAO and then treated with vehicle or SS-31 (2 mg/kg, i.p.) upon reperfusion) and at 6 h, 24 h, 48 h after MCAO. Infarct volumes and hemispheric swelling were determined at 3 days after ischemia.
smiles,measurement,value
"Cc1cc(O)cc(C)c1C[C@H](NC(=O)[C@H](N)CCCNC(=N)N)C(=O)N[C@@H](CCCCN)C(=O)N[C@@H](Cc1ccccc1)C(N)=O [SS-31, D-Arg-2′6′-Dmt-Lys-Phe-NH2] (H-[dR][Dmt]KF-NH2; N-terminus assumed)",cerebral blood flow (CBF) reduction during MCAO,no difference
same,reperfusion at 10 min,no difference

# Where a SMILES comes first, the peptide text is derived from it. [ ]: non-standard residue; d: D form. Dmt = Cc1cc(O)cc(C)c1C[C@H](N)C(=O)O
